This is an account of results in patent US9206224 (dated 2015).

This data set in a line: general procedure: Fmoc solid-phase peptide synthesis. Conditions: whole synthesis, scale 0.25 mmol.

As for N3-ESOC-AAAAAKDYIRN-SEAoff, the isolated mass is given as 23 mg and the isolated yield result is given as “Yld=23%”.
Regarding N3-Esoc-GILKEPVQGA-SEAoff, the isolated mass stood at 15 mg and the isolated yield entry is “Yld=14%”.
